Results taken from patent US11230581B2, “Peptides and combination of peptides for use in immunotherapy against ovarian cancer and other cancers” (Immatics Biotechnologies GmbH, priority 2015, dated 2022).

Key:
additional tumor types = assay: LC-MS detection and over-presentation of the peptides on additional tumor types, cell lines and primary cultures; parameters: species or system human; details: for Other relevant organs/ cancerous diseases: Table 4A: additional tumor types on which the peptide was found, over-presented on more than 5% of measured tumor samples, or presented on more than 5% with ratio of geometric means tumor vs normal tissues larger than 3; for Additional organs/cancerous diseases: additional tumor types with over-presentation on more than 5% of the measured tumor samples, or presentation on more than 5% with ratio of geometric means tumor vs normal tissues larger than 3
ovarian cancer samples = assay: Relative LC-MS quantitation of HLA-presented peptides: presentation and over-presentation on ovarian cancer vs a panel of normal tissues (presentation score); parameters: species or system human; key: +++: very highly over-presented on tumors compared to a panel of normal tissues; ++: highly over-presented on tumors compared to a panel of normal tissues; +: over-presented on tumors compared to a panel of normal tissues; details: over-presentation on tumors compared to a panel of normal tissues

Substance	Other relevant organs/ cancerous diseases (additional tumor types)	Additional organs/cancerous diseases (additional tumor types)	Peptide Presentation (presentation score) (ovarian cancer samples)
480 (ALLEDSCHYL; listed as Homo sapiens) [compound 480]	NSCLC, CRC, HCC, Leukemia, Esophageal Cancer	HNSCC	+
481 (GLIEDYEALL; listed as Homo sapiens) [compound 481]	SCLC	Melanoma, AML	+++
482 (SLAPAGIADA; listed as Homo sapiens) [compound 482]		Melanoma, Uterine Cancer, HNSCC	+++
483 (ALTDIVSQV; listed as Homo sapiens) [compound 483]	Urinary bladder Cancer	NSCLC, SCLC, BRCA, Uterine Cancer, Gallbladder Cancer and Bile Duct Cancer, HNSCC	+
486 (AVMESIQGV; listed as Homo sapiens) [compound 486]	NSCLC, HCC, PrC, Leukemia, Esophageal Cancer, Urinary bladder Cancer, Uterine Cancer	CLL	++
487 (LLINSVFHV; listed as Homo sapiens) [compound 487]	Melanoma	Urinary Bladder Cancer, NHL	+
488 (FLAEDPKVTL; listed as Homo sapiens) [compound 488]	Leukemia	CLL, BRCA, Melanoma, Urinary Bladder Cancer, NHL	+
489 (KMWEELPEVV; listed as Homo sapiens) [compound 489]	NSCLC, HCC, Leukemia	CLL, Esophageal Cancer, Urinary Bladder Cancer, AML, NHL, HNSCC	+++
490 (FLLQHVQEL; listed as Homo sapiens) [compound 490]	Leukemia	CLL, NHL	+++
491 (GLNDRSDAV; listed as Homo sapiens) [compound 491]	Esophageal Cancer, Endometrium	BRCA, AML, HNSCC	+++
492 (SLFDGFADGLGV; listed as Homo sapiens) [compound 492]	NSCLC, SCLC, Brain Cancer, HCC, PrC, Esophageal Cancer	BRCA	+++
494 (ALQPEPIKV; listed as Homo sapiens) [compound 494]	Urinary bladder, Gallbladder, Bile duct		+++
495 (FIFSEKPVFV; listed as Homo sapiens) [compound 495]	Urinary bladder Cancer	Melanoma, AML, NHL	+
496 (FLVEKQPPQV; listed as Homo sapiens) [compound 496]	Leukemia, Melanoma	CLL, NHL	+++
497 (GLLEKLTAI; listed as Homo sapiens) [compound 497]	NSCLC, RCC, Esophageal Cancer, Uterine Cancer	SCLC, CLL, BRCA, Melanoma, Urinary Bladder Cancer, AML, NHL	+
498 (KLWTGGLDNTV; listed as Homo sapiens) [compound 498]	HCC, Esophageal Cancer	NSCLC, Brain Cancer, CLL, Urinary Bladder Cancer, Uterine Cancer, NHL	+
499 (KIFDIDEAEEGV; listed as Homo sapiens) [compound 499]	PC, Melanoma, Esophageal Cancer		+++
500 (SLMEDQVLQL; listed as Homo sapiens) [compound 500]	SCLC, Colon, Rectum	CLL, AML	+
501 (LLDPNVKSIFV; listed as Homo sapiens) [compound 501]	NSCLC, SCLC, Brain Cancer, HCC, PrC, MCC, Melanoma, Esophageal Cancer, Gallbladder Cancer, Bile Duct Cancer	BRCA, Urinary Bladder Cancer, HNSCC	++
502 (RLLAQVPGL; listed as Homo sapiens) [compound 502]	RCC, Urinary bladder Cancer	Melanoma, Uterine Cancer, Gallbladder Cancer and Bile Duct Cancer, AML, NHL	+++
503 (SLNHFTHSV; listed as Homo sapiens) [compound 503]	NSCLC, Leukemia	HCC, CLL, Urinary Bladder Cancer, AML, NHL, HNSCC	+
504 (GLSDGNPSL; listed as Homo sapiens) [compound 504]	Leukemia, BrCa	CLL, Uterine Cancer	+++
505 (SLAPGDVVRQV; listed as Homo sapiens) [compound 505]	Esophageal Cancer	BRCA, Urinary Bladder Cancer, HNSCC	+++
506 (KLLGKVETA; listed as Homo sapiens) [compound 506]	NSCLC, Brain Cancer, Leukemia, Esophageal Cancer	CLL, NHL	+++
507 (KLIDDQDISISL; listed as Homo sapiens) [compound 507]	Leukemia	CLL, Urinary Bladder Cancer, NHL	+
508 (ILAQEQLVVGV; listed as Homo sapiens) [compound 508]	Leukemia, Esophageal Cancer	SCLC, Gallbladder Cancer and Bile Duct Cancer	+++
510 (KLYSVVSQL; listed as Homo sapiens) [compound 510]	Colon, Rectum, Leukemia	NHL	+++
511 (FLDPYCSASV; listed as Homo sapiens) [compound 511]		SCLC, Uterine Cancer	+++
512 (SLSEIVPCL; listed as Homo sapiens) [compound 512]		Uterine Cancer, AML, HNSCC	+++
513 (SLWPSPEQL; listed as Homo sapiens) [compound 513]	HCC, Esophageal Cancer	Melanoma, AML, NHL, HNSCC	+++
